Experimental data as given in PubChem BioAssay AID330 (DTP/NCI, 2004).
The list is a part of this screen's results and no random one: it is rich in T/C values a quarter to a half above the control, in often repeated tests (any T/C) and in doses without a T/C. Further doses and runs are listed elsewhere. T/C gives the treated animals as a percentage of the vehicle group. Some doses have a count of surviving animals in place of a T/C: the source holds a T/C of zero for them, seemingly a mark for toxic or unscored doses. Some survivor counts are full or nearly so, which does not show that the dose was tolerated: survival well below the control is almost never listed, so the zero probably covers shortened survival too. Survivors were counted at the toxicity check, usually on the fifth day, unless a day is given; later deaths do not show. Schedules are NCI's codes, taken here to give the interval after Q, in days (D) or hours (H), and the number of doses after X. Some entries were tested several times; the values are given in rising order. Where survival is the endpoint, the PubChem record calls one and a half times the control and up active, and a quarter to a half above the control has no call in these data; cut-offs in other NCI protocols can differ. Some T/C values carry the count of animals alive at the toxicity check (mostly the fifth day); where none is given, no animal had died by that day.

Tested on: P388 leukemia ip, CD2F1 mice, survival T/C
Experiment: NCI In Vivo Anticancer Drug Screen. Data for tumor model P388 Leukemia (intraperitoneal) in CD2F1 (CDF1) mice
Details: T/C endpoint: median survival time, higher T/C = longer survival
[1] = dose: 50.0 mg/kg/injection, schedule: Q01DX009 (ip), vehicle: Klucel (hydroxypropylcellulose) (HPC)
[2] = dose: 50.0 mg/kg/injection, schedule: Q01DX009 (ip), vehicle: saline
[3] = dose: 100.0 mg/kg/injection, schedule: Q01DX009 (ip), vehicle: Klucel (hydroxypropylcellulose) (HPC)
[4] = dose: 100.0 mg/kg/injection, schedule: Q01DX009 (ip), vehicle: saline
[5] = dose: 200.0 mg/kg/injection, schedule: Q01DX009 (ip), vehicle: Klucel (hydroxypropylcellulose) (HPC)
[6] = dose: 200.0 mg/kg/injection, schedule: Q01DX009 (ip), vehicle: saline
[7] = dose: 240.0 mg/kg/injection, schedule: Q01DX005 (ip), vehicle: saline with Tween-80
[8] = dose: 50.0 mg/kg/injection, schedule: Q01DX009 (ip), vehicle: saline with Tween-80
[9] = dose: 200.0 mg/kg/injection, schedule: Q01DX005 (ip), vehicle: saline with Tween-80
[10] = dose: 12.5 mg/kg/injection, schedule: Q01DX009 (ip), vehicle: saline with Tween-80
[11] = dose: 100.0 mg/kg/injection, schedule: Q01DX009 (ip), vehicle: saline with Tween-80
[12] = dose: 200.0 mg/kg/injection, schedule: Q01DX009 (ip), vehicle: saline with Tween-80

CSCCC([NH-])C(=O)O.CSCCC([NH-])C(=O)O.[Cu+2] (configuration not stated)
survivor count (dose: 25.0 mg/kg/injection, schedule: Q01DX009 (ip), vehicle: Klucel (hydroxypropylcellulose) (HPC)): 2 of 5
survivor count [1]: 0 of 6
survivor count [2]: 0 of 6
survivor count [3]: 0 of 6
survivor count [4]: 0 of 6
survivor count [5]: 0 of 6
survivor count [6]: 0 of 6

Oc1cc(O)c(Br)c(O)c1
survivor count (dose: 60.0 mg/kg/injection, schedule: Q01DX005 (ip), vehicle: saline with Tween-80): 4 of 6
survivor count (dose: 120.0 mg/kg/injection, schedule: Q01DX005 (ip), vehicle: saline with Tween-80): 0 of 6
survivor count [7]: 0 of 6

CN(CCN(C)C(=S)SCc1ccccc1)C(=S)SCc1ccccc1
survivor count [1]: 6 of 6
survivor count [3]: 6 of 6
survivor count [5]: 6 of 6

CC(=O)Nc1ncnc2c(C3OC(COC(C)=O)C(OC(C)=O)C3OC(C)=O)[nH]nc12 (configuration not stated)
survivor count [7]: 3 of 6

C1=CC2CCC1C1CSCC21 (configuration not stated)
survivor count [4]: 0 of 6
survivor count [6]: 0 of 6

CCC(c1ccc(O)cc1)C(CC)c1ccc(OC)cc1 (configuration not stated)
survivor count (dose: 400.0 mg/kg/injection, schedule: Q04DX003 (ip), vehicle: saline with Tween-80): 6 of 6

Fc1cccc2c(SCCCCCSc3c4ccccc4nc4c(F)cccc34)c3ccccc3nc12
survivor count (dose: 240.0 mg/kg/injection, schedule: Q01DX005 (ip), vehicle: Klucel (hydroxypropylcellulose) (HPC)): 6 of 6

COC1OC2COC(c3ccccc3)OC2C(OS(=O)(=O)c2ccc(C)cc2)C1OS(=O)(=O)c1ccc(C)cc1 (configuration not stated)
survivor count [8]: 6 of 6

CCN(CC)CCCC(CCl)Nc1ccnc2cc(Cl)ccc12 (configuration not stated)
survivor count [6]: 0 of 6

O=C1OC(c2ccccc2)(c2ccccc2)CC12CC(c1ccccc1)(c1ccccc1)OC2=O
survivor count [9]: 6 of 6

CC[As](CC)SC1OC(C2COC(C)(C)O2)C2OC(C)(C)OC12 (configuration not stated)
survivor count (dose: 100.0 mg/kg/injection, schedule: Q01DX009 (ip), vehicle: distilled water + Tween-80): 4 of 6
survivor count (dose: 200.0 mg/kg/injection, schedule: Q01DX009 (ip), vehicle: distilled water + Tween-80): 0 of 6

[C-]#[N+]C1CCCCC1.[C-]#[N+]C1CCCCC1.[C-]#[N+]C1CCCCC1.[C-]#[N+]C1CCCCC1.[C-]#[N+]C1CCCCC1.[C-]#[N+]C1CCCCC1.[Mn]
survivor count (dose: 3.0 mg/kg/injection, schedule: Q01DX009 (ip), vehicle: saline with Tween-80): 1 of 6 and 2 of 6
survivor count (dose: 6.25 mg/kg/injection, schedule: Q01DX009 (ip), vehicle: saline with Tween-80): 0 of 6
survivor count [10]: 0 of 6
survivor count (dose: 25.0 mg/kg/injection, schedule: Q01DX009 (ip), vehicle: saline with Tween-80): 0 of 6
survivor count [8]: 0 of 6
survivor count [11]: 0 of 6
survivor count [12]: 0 of 6

CCC(C)N(C(=O)c1ccccc1)c1ccccc1 (configuration not stated)
T/C (dose: 50.0 mg/kg/injection, schedule: Q01DX009 (ip), vehicle: other): 128 % of control [5 of 6 alive]
survivor count (dose: 100.0 mg/kg/injection, schedule: Q01DX009 (ip), vehicle: other): 2 of 6
survivor count (dose: 100.0 mg/kg/injection, schedule: Q01DX009 (ip), vehicle: saline + Tween-80 + alcohol): 3 of 6

CC(C)C(NN)C(=O)O (configuration not stated)
survivor count [9]: 4 of 5

CCCOP(=S)(N1CC1C)N1CC1(C)C (configuration not stated)
T/C (dose: 25.0 mg/kg/injection, schedule: Q04DX003 (ip), vehicle: saline with Tween-80): 136 % of control
T/C [8]: 131 % of control
survivor count [12]: 5 of 6

O=NN(Cc1cccnc1)C(=O)NC1CCCCC1
survivor count (dose: 200.0 mg/kg/injection, schedule: Q01DX001 (ip), vehicle: distilled water + Tween-80): 3 of 6
survivor count (dose: 400.0 mg/kg/injection, schedule: Q01DX001 (ip), vehicle: distilled water + Tween-80): 0 of 6

Cc1[c-]onc1C.Cc1[c-]onc1C.[Ag].[Ag].[NH-]S(=O)(=O)c1ccc(N=Nc2cc(N=Nc3ccc(S([NH-])(=O)=O)cc3)c3c(NC(=O)C(Cl)Cl)cccc3c2OC(=O)C(Cl)Cl)cc1
survivor count [10]: 6 of 6
survivor count [11]: 4 of 6
survivor count [12]: 0 of 6

O=C(OCc1ccccc1)ON1C(=O)C2C3C=CC(C3)C2C1=O (configuration not stated)
survivor count (dose: 200.0 mg/kg/injection, schedule: Q01DX005 (ip), vehicle: Klucel (hydroxypropylcellulose) (HPC)): 3 of 5

CCCCC1C=CC2C(N1)N2C#N (configuration not stated)
survivor count [8]: 6 of 6
survivor count [12]: 0 of 6

CCOC(=O)N1Cc2cc3ncccc3nc2C1
survivor count (dose: 100.0 mg/kg/injection, schedule: Q01DX005 (ip), vehicle: Klucel (hydroxypropylcellulose) (HPC)): 6 of 6

CCCCCCCCCCCC[N+]1(CCCCCCCCCCCC)CCCC(C)C1 (configuration not stated)
T/C (dose: 0.37 mg/kg/injection, schedule: Q01DX009 (ip), vehicle: Klucel (hydroxypropylcellulose) (HPC)): 149 % of control
survivor count (dose: 1.5 mg/kg/injection, schedule: Q01DX009 (ip), vehicle: Klucel (hydroxypropylcellulose) (HPC)): 0 of 6
survivor count (dose: 3.0 mg/kg/injection, schedule: Q01DX009 (ip), vehicle: Klucel (hydroxypropylcellulose) (HPC)): 0 of 6
survivor count (dose: 6.0 mg/kg/injection, schedule: Q01DX009 (ip), vehicle: Klucel (hydroxypropylcellulose) (HPC)): 0 of 6

O=C(/C=C/c1ccccc1)Oc1cc([N+](=O)[O-])cc([N+](=O)[O-])c1
T/C (dose: 400.0 mg/kg/injection, schedule: Q04DX002 (ip), vehicle: saline with Tween-80): 139 % of control

CN(C)NC(=O)/C=C\C(=O)O
T/C [2]: 125 % of control
T/C [4]: 129 % of control

CCOC(=O)C(Cc1c[nH]c2ccccc12)NC(=O)C1(O)C(O)C2(CC)C=CCN3CCC4(c5cc(C6(C(=O)OC)CC7CC(CC)CN(CCc8c6[nH]c6ccccc86)C7)c(OC)cc5N(C)C14)C32 (configuration not stated)
T/C (dose: 2.0 mg/kg/injection, schedule: Q01DX001 (ip), vehicle: saline): 125 % of control
T/C (dose: 4.0 mg/kg/injection, schedule: Q01DX001 (ip), vehicle: saline): 138 % of control
T/C (dose: 8.0 mg/kg/injection, schedule: Q01DX001 (ip), vehicle: saline): 126 and 149 % of control
T/C (dose: 16.0 mg/kg/injection, schedule: Q01DX001 (ip), vehicle: saline): 131 % of control
T/C (dose: 32.0 mg/kg/injection, schedule: Q01DX001 (ip), vehicle: saline): 142 % of control
survivor count (dose: 64.0 mg/kg/injection, schedule: Q01DX001 (ip), vehicle: saline): 2 of 6

CC/C(=N/NS(=O)(=O)c1ccc(C)cc1)c1ccc(C(C)(C)C)cc1
survivor count [4]: 6 of 6

CC(C)=CC(=O)CC(O)(C(F)(F)F)C(F)(F)Cl (configuration not stated)
survivor count [8]: 3 of 6
survivor count [11]: 2 of 6

CCCCCCCCCCCCc1ccc(C[N+](C)(C)CC[N+](C)(C)Cc2ccc(CCCCCCCCCCCC)cc2)cc1
survivor count [4]: 0 of 6
survivor count [6]: 0 of 6

Nc1ncnc2c1ncn2C1OC(COC2C(O)C(OC3OC(CO)C(O)C(O)C3N)C(O)C(OS(=O)(=O)O)C2OC(=O)[C@@H](N)CO)C(O)C1O (some centres not stated)
survivor count (dose: 2.5 mg/kg/injection, schedule: Q01DX005 (ip), vehicle: Klucel (hydroxypropylcellulose) (HPC)): 2 of 6
survivor count (dose: 5.0 mg/kg/injection, schedule: Q01DX005 (ip), vehicle: Klucel (hydroxypropylcellulose) (HPC)): 0 of 6
survivor count (dose: 10.0 mg/kg/injection, schedule: Q01DX005 (ip), vehicle: Klucel (hydroxypropylcellulose) (HPC)): 0 of 6
